# According to the supplement of paper PMC8728848:
# This is one part of the list.
# B1: HFR-3 (Triticum aestivum) (protein)
# chain: MKGLLLCALALAFAAVTTHAQLQSCPTRCGKQADGMECPNNLCCSKDGYCGLGVDYCSAGAGCQSGACYDNKICGAQANGTLCRNNHCCSSGGRCGYGREYCSNGCQGGPCWADLKCGHLDNGKLCPNNLCCSQYGYCGLGPEFCGTGCQNGACSTDKPCGNKANGAPCTNNYCCSQYGSCGLGKDYCGTGCQNGACN
# Experiments:
# Test in all cases: glycan array binding signal (z-score within array); higher = stronger binding
# Conditions in all cases: glycan notation: IUPAC condensed, linker removed
# [1] = target: Neu5Ac(a2-3)Gal(b1-3)GalNAc(b1-3)Gal(a1-4)Gal(b1-4)Glc
# In short: (§1)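 Negative Z-scores can be read as non-binding. The Z-score is calculated within each array and then averaged across arrays of one protein sequence at different concentrations or buffers and across linkers. Arrays, 3228 in all, were curated from the Consortium for Functional Glycomics database and kept only where the protein sequence was available.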
# [2] = target: Neu5Ac(a2-3)Gal(b1-3)GalNAc(b1-4)[Neu5Ac(a2-3)]Gal(b1-4)Glc
# In short: as §1
# [3] = target: Neu5Ac(a2-3)Gal(b1-3)GalNAc(b1-4)[Neu5Ac(a2-8)Neu5Ac(a2-3)]Gal(b1-4)Glc
# In short: as §1
# [4] = target: Neu5Ac(a2-3)Gal(b1-3)GalNAc6S
# In short: as §1
# [5] = target: Neu5Ac(a2-3)Gal(b1-3)GlcNAc
# In short: as §1
# [6] = target: Neu5Ac(a2-3)Gal(b1-3)GlcNAc(b1-2)Man
# In short: as §1
# [7] = target: Neu5Ac(a2-3)Gal(b1-3)GlcNAc(b1-2)Man(a1-3)[GlcNAc(b1-4)][Neu5Ac(a2-3)Gal(b1-3)GlcNAc(b1-2)Man(a1-6)]Man(b1-4)GlcNAc(b1-4)GlcNAc
# In short: as §1
# [8] = target: Neu5Ac(a2-3)Gal(b1-3)GlcNAc(b1-2)Man(a1-3)[Neu5Ac(a2-3)Gal(b1-3)GlcNAc(b1-2)Man(a1-6)]Man(b1-4)GlcNAc(b1-4)GlcNAc
# In short: as §1
# [9] = target: Neu5Ac(a2-3)Gal(b1-3)GlcNAc(b1-3)Gal(b1-3)GlcNAc
# In short: as §1
# [10] = target: Neu5Ac(a2-3)Gal(b1-3)GlcNAc(b1-3)Gal(b1-4)GlcNAc
# In short: as §1
# [11] = target: Neu5Ac(a2-3)Gal(b1-3)GlcNAc(b1-3)GalNAc
# In short: as §1
# [12] = target: Neu5Ac(a2-3)Gal(b1-3)GlcNAc(b1-4)Gal(b1-4)Glc
# In short: as §1
# [13] = target: Neu5Ac(a2-3)Gal(b1-3)GlcNAc(b1-6)GalNAc
# In short: as §1
# [14] = target: Neu5Ac(a2-3)Gal(b1-3)GlcNAc6S
# In short: as §1
# [15] = target: Neu5Ac(a2-3)Gal(b1-3)[Fuc(a1-4)]GlcNAc
# In short: as §1
# [16] = target: Neu5Ac(a2-3)Gal(b1-3)[Fuc(a1-4)]GlcNAc(b1-3)Gal(b1-3)[Fuc(a1-4)]GlcNAc
# In short: as §1
# [17] = target: Neu5Ac(a2-3)Gal(b1-3)[Fuc(a1-4)]GlcNAc(b1-3)Gal(b1-4)[Fuc(a1-3)]GlcNAc
# In short: as §1
# [18] = target: Neu5Ac(a2-3)Gal(b1-3)[GlcNAc(b1-6)]GalNAc
# In short: as §1
# [19] = target: Neu5Ac(a2-3)Gal(b1-3)[Neu5Ac(a2-6)]GalNAc
# In short: as §1
# [20] = target: Neu5Ac(a2-3)Gal(b1-3)[Neu5Ac(a2-6)]GlcNAc(b1-3)[Fuc(a1-3)[Gal(b1-4)]GlcNAc(b1-6)]Gal(b1-4)Glc
# In short: as §1
# [21] = target: Neu5Ac(a2-3)Gal(b1-3)]Neu5Ac(a2-3)Gal(b1-4)]GlcNAc
# In short: as §1
# Neu5Ac(a2-3)Gal(b1-4)Glc = target: Neu5Ac(a2-3)Gal(b1-4)Glc
# In short: as §1
# [22] = target: Neu5Ac(a2-3)Gal(b1-4)GlcNAc
# In short: as §1
# [23] = target: Neu5Ac(a2-3)Gal(b1-4)GlcNAc(b1-2)Man
# In short: as §1
# [24] = target: Neu5Ac(a2-3)Gal(b1-4)GlcNAc(b1-2)Man(a1-3)[GlcNAc(b1-4)][Neu5Ac(a2-3)Gal(b1-4)GlcNAc(b1-2)Man(a1-6)]Man(b1-4)GlcNAc(b1-4)GlcNAc
# In short: as §1
# [25] = target: Neu5Ac(a2-3)Gal(b1-4)GlcNAc(b1-2)Man(a1-3)[Neu5Ac(a2-3)Gal(b1-4)GlcNAc(b1-2)Man(a1-6)]Man(b1-4)GlcNAc(b1-4)GlcNAc
# In short: as §1
# [26] = target: Neu5Ac(a2-3)Gal(b1-4)GlcNAc(b1-2)Man(a1-3)[Neu5Ac(a2-3)Gal(b1-4)GlcNAc(b1-2)Man(a1-6)]Man(b1-4)GlcNAc(b1-4)[Fuc(a1-6)]GlcNAc
# In short: as §1
# [27] = target: Neu5Ac(a2-3)Gal(b1-4)GlcNAc(b1-2)Man(a1-3)[Neu5Ac(a2-6)Gal(b1-4)GlcNAc(b1-2)Man(a1-6)]Man(b1-4)GlcNAc(b1-4)GlcNAc
# In short: as §1
# [28] = target: Neu5Ac(a2-3)Gal(b1-4)GlcNAc(b1-2)[Neu5Ac(a2-3)Gal(b1-4)GlcNAc(b1-4)]Man(a1-3)[GlcNAc(b1-4)][Neu5Ac(a2-3)Gal(b1-4)GlcNAc(b1-2)[Neu5Ac(a2-3)Gal(b1-4)GlcNAc(b1-6)]Man(a1-6)]Man(b1-4)GlcNAc(b1-4)GlcNAc
# In short: as §1
# [29] = target: Neu5Ac(a2-3)Gal(b1-4)GlcNAc(b1-2)[Neu5Ac(a2-3)Gal(b1-4)GlcNAc(b1-4)]Man(a1-3)[GlcNAc(b1-4)][Neu5Ac(a2-3)Gal(b1-4)GlcNAc(b1-4)Man(a1-6)]Man(b1-4)GlcNAc(b1-4)GlcNAc
# In short: as §1
# [30] = target: Neu5Ac(a2-3)Gal(b1-4)GlcNAc(b1-2)[Neu5Ac(a2-3)Gal(b1-4)GlcNAc(b1-6)]Man(a1-6)[Neu5Ac(a2-3)Gal(b1-4)GlcNAc(b1-2)Man(a1-3)]Man(b1-4)GlcNAc(b1-4)GlcNAc
# In short: as §1
# [31] = target: Neu5Ac(a2-3)Gal(b1-4)GlcNAc(b1-2)[Neu5Ac(a2-3)Gal(b1-4)GlcNAc(b1-6)]Man(a1-6)[Neu5Ac(a2-3)Gal(b1-4)GlcNAc(b1-2)Man(a1-3)][GlcNAc(b1-4)]Man(b1-4)GlcNAc(b1-4)GlcNAc
# In short: as §1
# [32] = target: Neu5Ac(a2-3)Gal(b1-4)GlcNAc(b1-3)Gal
# In short: as §1
# [33] = target: Neu5Ac(a2-3)Gal(b1-4)GlcNAc(b1-3)Gal(b1-3)GlcNAc
# In short: as §1
# [34] = target: Neu5Ac(a2-3)Gal(b1-4)GlcNAc(b1-3)Gal(b1-4)GlcNAc
# In short: as §1
# [35] = target: Neu5Ac(a2-3)Gal(b1-4)GlcNAc(b1-3)Gal(b1-4)GlcNAc(b1-2)Man(a1-3)[Neu5Ac(a2-3)Gal(b1-4)GlcNAc(b1-3)Gal(b1-4)GlcNAc(b1-2)Man(a1-6)]Man(b1-4)GlcNAc(b1-4)GlcNAc
# In short: as §1
# [36] = target: Neu5Ac(a2-3)Gal(b1-4)GlcNAc(b1-3)Gal(b1-4)GlcNAc(b1-3)Gal(b1-4)GlcNAc
# In short: as §1
# [37] = target: Neu5Ac(a2-3)Gal(b1-4)GlcNAc(b1-3)Gal(b1-4)GlcNAc(b1-3)Gal(b1-4)GlcNAc(b1-2)Man(a1-3)[Neu5Ac(a2-3)Gal(b1-4)GlcNAc(b1-3)Gal(b1-4)GlcNAc(b1-3)Gal(b1-4)GlcNAc(b1-2)Man(a1-6)]GalNAc
# In short: as §1
# [38] = target: Neu5Ac(a2-3)Gal(b1-4)GlcNAc(b1-3)Gal(b1-4)GlcNAc(b1-3)GalNAc
# In short: as §1
# [39] = target: Neu5Ac(a2-3)Gal(b1-4)GlcNAc(b1-3)Gal(b1-4)GlcNAc(b1-3)[Neu5Ac(a2-3)Gal(b1-4)GlcNAc(b1-3)Gal(b1-4)GlcNAc(b1-6)]GalNAc
# In short: as §1
# [40] = target: Neu5Ac(a2-3)Gal(b1-4)GlcNAc(b1-3)Gal(b1-4)GlcNAc(b1-6)[Gal(b1-3)]GalNAc
# In short: as §1
# [41] = target: Neu5Ac(a2-3)Gal(b1-4)GlcNAc(b1-3)Gal(b1-4)[Fuc(a1-3)]GlcNAc
# In short: as §1
# [42] = target: Neu5Ac(a2-3)Gal(b1-4)GlcNAc(b1-3)GalNAc
# In short: as §1
# [43] = target: Neu5Ac(a2-3)Gal(b1-4)GlcNAc(b1-3)[Neu5Ac(a2-3)Gal(b1-4)GlcNAc(b1-6)]GalNAc
# In short: as §1
# [44] = target: Neu5Ac(a2-3)Gal(b1-4)GlcNAc(b1-6)GalNAc
# In short: as §1
binder,measurement,setting,value
B1,glycan array binding signal (z-score),[1],-0.628
same,glycan array binding signal (z-score),[2],-1.1
same,glycan array binding signal (z-score),[3],-0.799
same,glycan array binding signal (z-score),[4],-0.641
same,glycan array binding signal (z-score),[5],0.051
same,glycan array binding signal (z-score),[6],1.12
same,glycan array binding signal (z-score),[7],-0.749
same,glycan array binding signal (z-score),[8],-0.846
same,glycan array binding signal (z-score),[9],-0.914
same,glycan array binding signal (z-score),[10],-0.984
same,glycan array binding signal (z-score),[11],-0.784
same,glycan array binding signal (z-score),[12],-1.22
same,glycan array binding signal (z-score),[13],-0.998
same,glycan array binding signal (z-score),[14],-0.174
same,glycan array binding signal (z-score),[15],1.94
same,glycan array binding signal (z-score),[16],0.294
same,glycan array binding signal (z-score),[17],0.911
same,glycan array binding signal (z-score),[18],-0.222
same,glycan array binding signal (z-score),[19],0.141
same,glycan array binding signal (z-score),[20],-0.504
same,glycan array binding signal (z-score),[21],-1.15
same,glycan array binding signal (z-score),Neu5Ac(a2-3)Gal(b1-4)Glc,0.95
same,glycan array binding signal (z-score),[22],-0.047
same,glycan array binding signal (z-score),[23],-0.287
same,glycan array binding signal (z-score),[24],-0.775
same,glycan array binding signal (z-score),[25],-1.67
same,glycan array binding signal (z-score),[26],0.846
same,glycan array binding signal (z-score),[27],0.904
same,glycan array binding signal (z-score),[28],-0.604
same,glycan array binding signal (z-score),[29],-1.37
same,glycan array binding signal (z-score),[30],1.69
same,glycan array binding signal (z-score),[31],-1.14
same,glycan array binding signal (z-score),[32],0.371
same,glycan array binding signal (z-score),[33],0.04
same,glycan array binding signal (z-score),[34],-0.856
same,glycan array binding signal (z-score),[35],0.192
same,glycan array binding signal (z-score),[36],0.099
same,glycan array binding signal (z-score),[37],0.113
same,glycan array binding signal (z-score),[38],-1.41
same,glycan array binding signal (z-score),[39],0.555
same,glycan array binding signal (z-score),[40],-0.697
same,glycan array binding signal (z-score),[41],-0.597
same,glycan array binding signal (z-score),[42],-0.063
same,glycan array binding signal (z-score),[43],-1.27
same,glycan array binding signal (z-score),[44],-0.05
